Measurements taken from PubChem BioAssay AID938 (National Center for Advancing Translational Sciences (NCATS), 2007).
Out of some 73,000 compounds screened, about 1,800 (2.5%) were called active. Not shown: some 13% with an inconclusive outcome. Calls come from the whole dose curve; as a rule, active = well fitted activation curve with a large enough effect; inconclusive = small, poorly fitted or top-dose-only effect; inactive = no such curve, though single readings can be large or run the other way. This is a selection; strong and weak results do not stand in their true shares. The source gives no active or inactive call for entries shown without one. Some structures have more than one record in an assay (separate samples or runs), and their calls can disagree.

Assay: qHTS Assay for Agonists of the Thyroid Stimulating Hormone Receptor: Activators of Intracellular cAMP Concentrations in Parental HEK 293; note: nearly all actives have a fitted effect of over 55% in size; for activation: % of control where 0% means no effect
Conditions: parental HEK293 CNG cAMP sensor, membrane potential fluorescence; activation: at 57.1 µM (top of the series)
Description: NIH Chemical Genomics Center [NCGC]
NIH Molecular Libraries Screening Centers Network [MLSCN]
PI Name: Dr. Marvin Gershengorn
This cell based assay utilized a cyclic nucleotide gated ion channel (CNG) as a biosensor for cAMP induction. HEK 293 cells stably expressing the modified CNG were purchased from BD biosciences (http://www.atto.com/products/actone/features_benefits.shtml) . Stimulation of cAMP production causes the CNG to open and subsequent membrane depolarization to occur. A fluorescent membrane potential dye (BD biosciences) was utilized to detect cAMP stimulation in cells.
The cells were maintained in DMEM medium (Invitrogen) containing 10 % FBS (Hyclone), 100 units/ml Penicillin, 100 ug/ml Streptomycin (Invitrogen), and 250 ug/ml Geneticin (Invitrogen) and 1 ug/ml Puromycin (Invitrogen) at 37C in 5% CO2. This assay was used as a counterscreen to "qHTS Assay for Agonists of the Thyroid Stimulating Hormone Receptor", to control for compounds signaling through endogenous receptors and other targets of HEK 293 cells.
NCGC Assay Protocol Summary:
High Throughput Screening. Freshly passaged cells were dispensed into 1536-well assay plates at 4 ul/well in DMEM containing phenol red (Invitrogen), 10% FCS (Hyclone), and 100 units/ml Penicillin, 100 ug/ml Streptomycin (Invitrogen) and incubated at 37 C with 5% CO2 for 20 to 36 hrs before the robotic screening. The screen was initiated by addition of 4 ul/well membrane potential dye containing 100 uM RO 20-1724 (Sigma Aldrich), followed by 60 min incubation at room temperature to allow for dye equilibration across the cell membrane. 23 nl/well compound or control was then added to the assay plates, which were incubated for additional 30 min before reading a Envision fluorescence plate reader (Perkin Elmer) in bottom-read mode for fluorescence intensity (emission at 590 nm).
Keywords: cAMP, CNG Ion Channel, quantitative high throughput screening, qHTS, HTS, probe identification, CNG, cAMP, cyclic nucleotide gated ion channel PubChem
Potency is the fitted concentration of half-maximal effect.

Structure (SMILES) | activation | Potency
COC(=O)c1ccccc1NC(=O)CS(=O)(=O)Cc1nc(-c2ccc(C)cc2)oc1C | 94.9% | –
CCOC(=O)CSc1nc2c(sc(=S)n2Cc2ccco2)c(=O)n1-c1ccccc1 | – | active: 1.26 µM
Cc1nc2cnc(N(C)C)nc2n(CCc2ccccc2)c1=O | – | active: 15.8 µM
CCOC(=O)CNC(=O)CSc1nnc(Cn2c(=O)sc3ccccc32)n1C | 75.8% | –
O=C(CSc1n[nH]c(=O)n1C1CC1)Nc1cc(Cl)ccc1Oc1ccccc1 | – | active: 12.6 µM
Cc1ccc(-c2nc(=S)c3c(n2Cc2ccco2)CCCC3)cc1 | – | active: 2.51 µM
CC(C)(C)c1ccc(S(=O)(=O)/C=C\C#N)cc1 | inactive: -10.5% | –
CN(CC(=O)NCc1cccs1)S(=O)(=O)c1cccc2cccnc12 | 66.7% | –
Nc1nc(N2CCOCC2)nc(N(c2ccccc2)c2ccccc2)n1 | 69% | –

2 of the compounds above, as a markdown table.

| Structure (SMILES) | activation | Potency |
| --- | --- | --- |
| Cc1ccc(-c2nc(=S)c3c(n2Cc2ccco2)CCCC3)cc1 | – | active: 2.51 µM |
| CC(C)(C)c1ccc(S(=O)(=O)/C=C\C#N)cc1 | inactive: -10.5% | – |
